Consider one substance from publication PMC6902597.

Protein sequences, listed by entry. Tags and fused reporters are not part of them.
UniProt Q9H6I2: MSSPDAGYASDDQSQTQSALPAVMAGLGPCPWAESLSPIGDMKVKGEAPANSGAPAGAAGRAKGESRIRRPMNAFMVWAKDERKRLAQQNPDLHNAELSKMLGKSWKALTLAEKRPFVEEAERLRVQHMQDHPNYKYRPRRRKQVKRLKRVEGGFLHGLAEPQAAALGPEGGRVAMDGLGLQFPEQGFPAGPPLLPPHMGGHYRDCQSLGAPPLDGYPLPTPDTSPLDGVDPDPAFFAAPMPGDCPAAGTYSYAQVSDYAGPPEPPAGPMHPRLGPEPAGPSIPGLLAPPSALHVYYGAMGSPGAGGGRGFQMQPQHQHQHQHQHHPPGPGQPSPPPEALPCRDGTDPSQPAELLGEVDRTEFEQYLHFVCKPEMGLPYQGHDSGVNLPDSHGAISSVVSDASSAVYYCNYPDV
UniProt P35222: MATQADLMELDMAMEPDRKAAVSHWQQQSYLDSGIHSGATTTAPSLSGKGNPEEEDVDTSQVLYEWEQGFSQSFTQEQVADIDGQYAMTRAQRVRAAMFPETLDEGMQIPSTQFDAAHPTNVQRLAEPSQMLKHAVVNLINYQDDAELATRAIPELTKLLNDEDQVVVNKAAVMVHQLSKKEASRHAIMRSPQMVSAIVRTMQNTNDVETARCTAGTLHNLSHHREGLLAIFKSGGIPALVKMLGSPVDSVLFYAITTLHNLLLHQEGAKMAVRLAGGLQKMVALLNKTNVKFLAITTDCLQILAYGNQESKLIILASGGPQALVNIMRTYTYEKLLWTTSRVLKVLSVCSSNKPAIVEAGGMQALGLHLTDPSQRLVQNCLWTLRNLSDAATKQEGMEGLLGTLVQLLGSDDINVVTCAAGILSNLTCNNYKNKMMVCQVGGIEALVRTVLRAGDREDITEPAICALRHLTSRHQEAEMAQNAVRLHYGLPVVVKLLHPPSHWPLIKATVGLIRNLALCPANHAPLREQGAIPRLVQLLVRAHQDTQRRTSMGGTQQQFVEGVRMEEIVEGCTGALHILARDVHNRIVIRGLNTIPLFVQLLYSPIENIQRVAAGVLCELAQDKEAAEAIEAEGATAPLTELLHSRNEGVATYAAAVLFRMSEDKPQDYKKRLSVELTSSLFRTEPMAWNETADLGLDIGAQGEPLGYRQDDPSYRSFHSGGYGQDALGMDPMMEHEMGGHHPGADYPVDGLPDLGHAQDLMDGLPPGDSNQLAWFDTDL

No constants are given. Whether binding was seen depends on the method and setting. Binding seen in cells or lysates may run through a third protein. Some binding calls cover weakened binding; strength is not graded here.

This test addresses Sox17, endogenous (human (endogenous in TPC-1)) (UniProt Q9H6I2). Kind of test: co-IP; endogenous proteins, cytoplasm, cells without IL-22 (Additional file 1: Fig. S3).

With “β-catenin, endogenous (from UniProt P35222 1-781)”, the binding result is recorded as “binds”.
